The list shows a part of the results. The data scatter; read single values as rough.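 The cells are a human neuroglioma line carrying a green fluorescent autophagy reporter.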
How the values were obtained:
H4 GFP-LC3 [1] = assay: cell viability (scaled to control) (fraction of control); higher = more viable cells
H4 GFP-LC3 [2] = assay: ACBP immunofluorescence intensity (scaled to control) (AU (scaled)); higher = more intracellular ACBP/DBI

SMILES	cell viability (H4 GFP-LC3 [1]; 6 h)	cell viability (H4 GFP-LC3 [1]; 24 h)	ACBP immunofluorescence intensity (H4 GFP-LC3 [2]; 6 h)	ACBP immunofluorescence intensity (H4 GFP-LC3 [2]; 24 h)
Clc1ccccc1CN1CCc2sccc2C1 (5 µM)	0.918	0.806	1	0.642
CN1CCCN(C(c2ccccc2)c2ccc(Cl)cc2)CC1 (stereo unspecified) (5 µM)	0.99	1.17	0.864	0.77
CC(N)(C(=O)O)c1ccc(-c2nnn[nH]2)cc1 (racemic) (5 µM)	1.03	1.36	0.827	0.557
C=CCn1c(=O)c2c(nc(-c3ccc(S(=O)(=O)O)cc3)n2C)n(C)c1=O (5 µM)	0.982	1.15	0.969	0.734
O=C(O)C1=CCCNC1 (5 µM)	0.78	1.05	0.986	0.699
Brc1c(NC2=NCCN2)ccc2nccnc12 (5 µM)	0.777	0.983	0.897	0.761
OCCN1CCN(CCCN2c3ccccc3Sc3ccc(C(F)(F)F)cc32)CC1 (5 µM)	0.666	1.22	0.957	0.71
Clc1ccc2c(c1)N=C(N1CCNCC1)c1ccccc1N2 (5 µM)	0.891	1.01	0.998	0.864
CCC(C)C(NC(=O)C(C)NC(=O)C(CC(N)=O)NC(=O)C(CCCCN)NC(=O)C(Cc1ccccc1)NC(=O)C(CC(C)C)NC(=O)C(NC(=O)C(NC(=O)C(CC(C)C)NC(=O)C1CCCN1C(=O)C(NC(=O)C(CCC(N)=O)NC(=O)C(CO)NC(=O)C(CCCCN)NC(=O)C(CCC(=O)O)NC(=O)C(CO)NC(=O)C(NC(=O)C(CCSC)NC(=O)C(Cc1ccccc1)NC(=O)CNC(=O)CNC(=O)C(N)Cc1ccc(O)cc1)C(C)O)C(C)O)C(C)C)C(C)O)C(=O)NC(C(=O)NC(CCCCN)C(=O)NC(CC(N)=O)C(=O)NC(C)C(=O)NC(Cc1ccc(O)cc1)C(=O)NC(CCCCN)C(=O)NC(CCCCN)C(=O)NCC(=O)NC(CCC(=O)O)C(=O)O)C(C)CC (stereo unspecified) (5 µM)	1.22	1.1	0.877	0.788

From the supplement of paper PMC11659162
